Paper PMC9561264
These are yes or no findings as the source states them, for the method shown. Some entries that bind do so weakly or less than the wild type.

By UniProt entry, the sequences of proteins in these tests, tags left out. Where a name states a change or a piece, a line headed by the entry shows the natural chain unless it says otherwise.
UniProt O15527: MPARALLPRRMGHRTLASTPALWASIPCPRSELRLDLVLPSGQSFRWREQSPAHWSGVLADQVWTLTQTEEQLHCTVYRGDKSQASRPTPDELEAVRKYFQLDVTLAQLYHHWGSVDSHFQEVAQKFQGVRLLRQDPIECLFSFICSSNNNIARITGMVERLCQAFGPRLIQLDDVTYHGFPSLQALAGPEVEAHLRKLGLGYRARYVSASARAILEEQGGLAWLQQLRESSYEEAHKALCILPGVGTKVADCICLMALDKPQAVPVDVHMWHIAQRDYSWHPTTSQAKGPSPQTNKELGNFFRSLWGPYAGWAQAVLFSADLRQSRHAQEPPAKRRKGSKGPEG
UniProt P01106: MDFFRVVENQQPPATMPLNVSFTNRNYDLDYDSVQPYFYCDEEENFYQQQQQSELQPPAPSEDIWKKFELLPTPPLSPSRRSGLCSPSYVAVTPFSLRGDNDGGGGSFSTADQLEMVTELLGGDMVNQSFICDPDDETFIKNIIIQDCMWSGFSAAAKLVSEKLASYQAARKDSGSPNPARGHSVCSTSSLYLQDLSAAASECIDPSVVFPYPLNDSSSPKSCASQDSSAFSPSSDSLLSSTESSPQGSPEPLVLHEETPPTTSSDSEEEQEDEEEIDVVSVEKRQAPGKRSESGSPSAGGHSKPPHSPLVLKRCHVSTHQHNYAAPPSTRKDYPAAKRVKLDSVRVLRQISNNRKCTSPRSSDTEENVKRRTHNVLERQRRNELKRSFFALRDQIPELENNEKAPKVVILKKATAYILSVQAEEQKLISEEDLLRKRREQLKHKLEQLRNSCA

Columns and labels:
hOGG1 C28A (human) [1] = biological target: hOGG1 C28A (human) (UniProt O15527); experiment: fluorescence polarisation; oxidising conditions (5 uM H2O2); 5 nM Ni-NTA AF488 labelled his6-hOGG1, unlabelled protein titrated (Myc 1.22 nM-2 uM, LSD1 1.38 nM-60 uM, hOGG1 0.24 nM-8 uM); 20 mM Tris-HCl pH 7.6, 200 mM NaCl; 25 C; single Hill fit; both purified
hOGG1 K249Q (human) [2] = biological target: hOGG1 K249Q (human) (UniProt O15527); experiment: AFM imaging, volume analysis; hOGG1 wildtype or K249Q (150 nM) with Myc (30 nM) and 505 bp oxoG DNA (3 nM), AFM buffer, oxidising (pre-oxidised hOGG1) and reducing (5 mM DTT) conditions; volumes of DNA-bound complexes; both purified
hOGG1 C28A (human) [3] = biological target: hOGG1 C28A (human) (UniProt O15527); experiment: non-reducing SDS-PAGE with anti-His Western blot; 8 uM purified hOGG1 wildtype or cysteine mutant, oxidised (pre-oxidised with 5 uM H2O2); non-reducing 15% SDS-PAGE, mouse anti-His antibody; both purified
hOGG1 C28A (human) [4] = biological target: hOGG1 C28A (human) (UniProt O15527); experiment: AFM imaging, volume analysis; pre-oxidised hOGG1 (wildtype or mutant, 150 nM) alone with 505 bp oxoG DNA (3 nM), AFM buffer (25 mM HEPES pH 7.5, 25 mM NaCl, 10 mM MgCl2) without DTT; volumes of DNA-bound complexes; both purified
hOGG1 K249Q (human) [5] = biological target: hOGG1 K249Q (human) (UniProt O15527); experiment: condition: only reducing conditions (5 mM DTT); 150 nM hOGG1; AFM imaging, volume analysis; native hOGG1 (wildtype or K249Q, 150 nM) alone with 505 bp oxoG DNA (3 nM), AFM buffer with 5 mM DTT; volumes of DNA-bound complexes; both purified

Substance: GST tagged full length c-Myc (from UniProt P01106 1-454)
- binding (hOGG1 C28A (human) [1]): binds
- binding (hOGG1 K249Q (human) [2]): binds

Substance: hOGG1 C28A (from UniProt O15527 1-345) (enzyme)
- binding (hOGG1 C28A (human) [3]): no binding (tested: 8 μM)
- binding (hOGG1 C28A (human) [4]): no binding (tested: 150 nM)

Substance: hOGG1 K249Q (from UniProt O15527 1-345) (enzyme)
- binding (hOGG1 K249Q (human) [5]): no binding
